The results in this text go back to paper PMC13415957.

The chains behind the UniProt entries cited, without tags or fusion partners. Where a name states a change or a piece, a line headed by the entry shows the natural chain unless it says otherwise.
UniProt A0A0U3JNE4: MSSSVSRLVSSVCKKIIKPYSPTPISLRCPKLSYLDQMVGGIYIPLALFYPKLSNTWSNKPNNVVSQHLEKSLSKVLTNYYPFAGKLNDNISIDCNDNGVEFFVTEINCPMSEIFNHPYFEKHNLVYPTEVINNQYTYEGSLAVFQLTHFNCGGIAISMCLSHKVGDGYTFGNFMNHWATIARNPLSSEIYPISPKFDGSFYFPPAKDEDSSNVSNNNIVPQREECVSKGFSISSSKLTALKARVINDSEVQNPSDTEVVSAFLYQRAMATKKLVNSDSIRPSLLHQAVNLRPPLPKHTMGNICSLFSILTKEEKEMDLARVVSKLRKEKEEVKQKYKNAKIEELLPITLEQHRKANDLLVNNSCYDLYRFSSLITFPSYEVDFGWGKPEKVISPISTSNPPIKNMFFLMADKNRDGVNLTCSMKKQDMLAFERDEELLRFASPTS

This assay deals with FLAG-SlASAT4 (Solanum lycopersicum (tomato)). The assay is described as follows: affinity purification with mass spectrometry; HA-SlASAT1, FLAG-SlASAT4 and untagged SlASAT2 and SlASAT3 co-expressed in N. benthamiana leaves; IP with anti-FLAG magnetic beads (bait FLAG-SlASAT4), high detergent stringency; proteomics (DIA-PASEF) searched against the N. benthamiana database with SlASAT1-SlASAT4; empty vector control.

No constants are given. Whether binding was seen depends on the method and setting. In cells and extracts the contact can be indirect. A yes stands for co-enrichment or nearness to the bait. Other partners may have been found.

“untagged SlASAT2 (from UniProt A0A0U3JNE4) (enzyme)”: the binding entry is recorded as “binds”.
